Source: US20250114345A1, “COMPOUNDS AND COMPOSITIONS AS CBP/P300 DEGRADERS AND USES THEREOF” (Oncopia Therapeutics, Inc. d/b/a/ SK Life Science Labs, priority 2023, published 2025)

Sequences of proteins named here, by UniProt entry; tags and fusion partners are left off.
UniProt Q09472, whole entry: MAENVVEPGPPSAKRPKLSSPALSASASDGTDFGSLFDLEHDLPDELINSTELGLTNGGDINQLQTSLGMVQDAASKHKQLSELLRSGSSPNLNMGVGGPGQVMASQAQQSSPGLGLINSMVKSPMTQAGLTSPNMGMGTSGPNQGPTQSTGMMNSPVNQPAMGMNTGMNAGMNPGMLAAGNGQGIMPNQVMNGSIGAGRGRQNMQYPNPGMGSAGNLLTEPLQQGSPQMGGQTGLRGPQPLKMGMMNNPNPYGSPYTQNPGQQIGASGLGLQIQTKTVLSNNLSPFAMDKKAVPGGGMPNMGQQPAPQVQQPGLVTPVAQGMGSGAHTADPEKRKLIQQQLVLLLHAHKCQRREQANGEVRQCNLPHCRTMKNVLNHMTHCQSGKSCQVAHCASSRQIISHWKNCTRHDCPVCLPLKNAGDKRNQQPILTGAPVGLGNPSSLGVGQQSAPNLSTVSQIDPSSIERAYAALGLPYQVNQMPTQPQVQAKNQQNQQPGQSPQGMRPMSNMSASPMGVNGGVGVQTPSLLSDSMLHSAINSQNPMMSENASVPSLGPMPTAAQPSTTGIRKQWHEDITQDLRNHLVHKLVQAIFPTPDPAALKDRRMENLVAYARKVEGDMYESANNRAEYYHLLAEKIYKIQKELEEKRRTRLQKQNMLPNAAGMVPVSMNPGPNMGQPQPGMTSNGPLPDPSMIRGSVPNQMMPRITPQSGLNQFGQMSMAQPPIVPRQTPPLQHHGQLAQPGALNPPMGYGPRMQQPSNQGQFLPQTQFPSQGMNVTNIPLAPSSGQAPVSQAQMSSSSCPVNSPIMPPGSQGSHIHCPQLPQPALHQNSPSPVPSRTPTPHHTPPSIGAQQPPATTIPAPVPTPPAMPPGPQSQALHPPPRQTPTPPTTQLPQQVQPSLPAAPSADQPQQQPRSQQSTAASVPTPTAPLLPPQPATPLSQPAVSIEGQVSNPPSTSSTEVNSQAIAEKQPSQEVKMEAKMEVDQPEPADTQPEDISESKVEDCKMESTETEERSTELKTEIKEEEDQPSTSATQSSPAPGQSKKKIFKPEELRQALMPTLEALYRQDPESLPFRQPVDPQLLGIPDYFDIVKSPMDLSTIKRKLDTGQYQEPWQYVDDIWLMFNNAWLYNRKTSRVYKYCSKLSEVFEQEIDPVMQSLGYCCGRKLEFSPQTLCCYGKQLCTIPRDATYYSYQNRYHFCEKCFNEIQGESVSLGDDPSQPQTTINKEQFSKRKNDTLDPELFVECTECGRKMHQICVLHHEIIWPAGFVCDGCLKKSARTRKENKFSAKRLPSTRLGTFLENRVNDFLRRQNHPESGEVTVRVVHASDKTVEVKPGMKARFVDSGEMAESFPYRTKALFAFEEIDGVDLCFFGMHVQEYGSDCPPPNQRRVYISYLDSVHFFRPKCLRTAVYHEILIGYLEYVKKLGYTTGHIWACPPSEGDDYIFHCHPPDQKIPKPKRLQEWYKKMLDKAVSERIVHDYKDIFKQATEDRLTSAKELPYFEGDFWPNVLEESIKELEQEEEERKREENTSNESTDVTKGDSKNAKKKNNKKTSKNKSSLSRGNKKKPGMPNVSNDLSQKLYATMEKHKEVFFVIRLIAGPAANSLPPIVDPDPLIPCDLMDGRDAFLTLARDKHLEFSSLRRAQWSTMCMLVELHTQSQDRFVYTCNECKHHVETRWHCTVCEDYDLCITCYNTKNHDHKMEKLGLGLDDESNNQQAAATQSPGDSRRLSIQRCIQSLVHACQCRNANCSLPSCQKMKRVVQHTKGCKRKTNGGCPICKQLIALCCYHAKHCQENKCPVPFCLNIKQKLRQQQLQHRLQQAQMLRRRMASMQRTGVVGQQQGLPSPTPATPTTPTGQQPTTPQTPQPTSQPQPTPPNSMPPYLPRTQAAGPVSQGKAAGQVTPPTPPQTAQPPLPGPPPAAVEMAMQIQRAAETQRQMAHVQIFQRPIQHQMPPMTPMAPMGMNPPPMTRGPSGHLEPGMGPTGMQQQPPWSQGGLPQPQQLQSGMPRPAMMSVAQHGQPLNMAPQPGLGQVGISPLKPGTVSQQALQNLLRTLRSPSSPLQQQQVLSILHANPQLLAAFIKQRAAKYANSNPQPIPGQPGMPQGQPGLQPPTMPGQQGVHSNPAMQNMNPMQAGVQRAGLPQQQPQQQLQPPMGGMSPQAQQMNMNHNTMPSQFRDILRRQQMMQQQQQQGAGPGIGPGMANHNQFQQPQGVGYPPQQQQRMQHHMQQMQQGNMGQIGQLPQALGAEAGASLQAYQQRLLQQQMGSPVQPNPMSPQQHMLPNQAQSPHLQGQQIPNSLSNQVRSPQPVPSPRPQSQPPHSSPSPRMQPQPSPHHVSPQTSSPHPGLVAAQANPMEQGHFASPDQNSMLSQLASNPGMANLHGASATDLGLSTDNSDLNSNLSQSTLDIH

Target: p300 (Homo sapiens, UniProt Q09472)
Experiment: P300 degradation, HiBit technology in A549 P300 HiBit cells (2 h)
Conditions: for P300 A549 2 h HiBit DMax (%): 2 hrs post treatment; for DC50: read-out: P300 A549 2 h HiBit DC50, 2 hrs post treatment
Method: p300 and CBP degradation potency and Dmax were determined using in cell western (ICW) assay technology in H1299 cells or HiBit technology in A549 HiBit cells.
A549 P300 HiBit and A549 CBP HiBit cells were plated in separate 384-well, TC treated, white-opaque, flat-bottomed microplate. Cells were plated at a cell density of 0.2×10^4 cells per well in assay media comprised of F-12K, 10% heat inactivated FBS, and 1% penicillin/streptomycin. Assay microplates containing HiBit cells were placed in a 37° C., 5% CO2, tissue culture incubator and left to equilibrate overnight. The next day cells were treated with serial dilutions of test compound made up of 10 mM stock solutions in DMSO. 384-Well plates containing treated cells were then placed back into a 37° C., 5% CO2, tissue culture incubator. Assay microplates containing A549 P300 HiBit cells were incubated for 2 hrs post treatment before P300 destruction was assessed, while microplates containing A549 CBP HiBit cells were incubated for 24 hrs post treatment before CBP destruction was determined. On the day of each assay time point, microplates were removed from the tissue culture incubator and prepared HiBit Lytic detection buffer (Promega, cat #N3O40) was added to each plate. Plates were covered with aluminum foil and incubated for ten minutes at room temperature on an orbital shaker. After incubation, luminescent signal of each plate was measured using the Envision instrument (Perkin Elmer).

Cc1cc2c(N3CCCc4nc(-c5ccc(C(=O)NCC#Cc6ccc7occ(C8CCC(=O)NC8=O)c7c6)nc5)ncc43)nc(N3CCN(S(C)(=O)=O)CC3)cc2n(C)c1=O (stereo not shown)
P300 A549 2 h HiBit DMax (%): B (“B”: 60-79%)
DC50: 1 to 9.9 nM

Cc1cc(-c2ncc3c(n2)OCCN3c2cnc3c(c2)n(C)c(=O)n3C)cnc1C(=O)NCC#Cc1cc2c(C3CCC(=O)NC3=O)cccc2o1 (stereo not shown)
P300 A549 2 h HiBit DMax (%): B (“B”: 60-79%)
DC50: 10 to 99 nM

The structures given here were assigned with low confidence; some may be wrong.
